# Experimental data as given in PubChem BioAssay AID248 (DTP/NCI, 2004).
# The list shows only some results of the screen, not a fair sample: it is rich in T/C values a quarter to a half above the control, in often repeated tests (any T/C) and in doses without a T/C. Other doses and runs of a compound stand elsewhere. T/C gives the treated animals as a percentage of the vehicle group. Some doses have a count of surviving animals in place of a T/C: the source holds a T/C of zero for them, seemingly a mark for toxic or unscored doses. Some survivor counts are full or nearly so, which does not show that the dose was tolerated: survival well below the control is almost never listed, so the zero probably covers shortened survival too. Counts of survivors are from the toxicity check (mostly the fifth day) where no day follows; animals may have died later. Schedules are NCI's codes, read here as Q, the interval in days (D) or hours (H), X, the number of doses. Some schedules carry Z or #; the key to these is not given. For survival time, the PubChem record calls one and a half times the control and up active, and a quarter to a half above the control has no call in these data; cut-offs in other NCI protocols can differ. Some entries were tested several times; the values are given in rising order. Some T/C values carry the count of animals alive at the toxicity check (mostly the fifth day); without a count, all were alive then.
# Test system: L1210 leukemia ip in BDF1 mice, survival T/C
# Assay: NCI In Vivo Anticancer Drug Screen. Data for tumor model L1210 Leukemia (intraperitoneal) in B6D2F1 (BDF1) mice
# Details: higher T/C = longer survival
# [1] = T/C endpoint: mean survival time, dose: 400.0 mg/kg/injection, schedule: Q04DX003 (ip), vehicle: Klucel (hydroxypropylcellulose) (HPC)
# [2] = T/C endpoint: mean survival time, dose: 50.0 mg/kg/injection, schedule: Q01DX001 (ip), vehicle: saline
# [3] = T/C endpoint: mean survival time, dose: 100.0 mg/kg/injection, schedule: Q01DX001 (ip), vehicle: saline
# [4] = T/C endpoint: mean survival time, dose: 200.0 mg/kg/injection, schedule: Q01DX001 (ip), vehicle: saline
# [5] = T/C endpoint: mean survival time, dose: 200.0 mg/kg/injection, schedule: Q04DX003 (ip), vehicle: saline with Tween-80
# [6] = T/C endpoint: mean survival time, dose: 400.0 mg/kg/injection, schedule: Q01DX001 (ip), vehicle: saline
# [7] = T/C endpoint: mean survival time, dose: 400.0 mg/kg/injection, schedule: Q04DX003 (ip), vehicle: saline with Tween-80
# [8] = T/C endpoint: mean survival time, dose: 150.0 mg/kg/injection, schedule: Q01DX001 (ip), vehicle: saline
# [9] = T/C endpoint: mean survival time, dose: 300.0 mg/kg/injection, schedule: Q01DX001 (ip), vehicle: saline
# [10] = T/C endpoint: mean survival time, dose: 200.0 mg/kg/injection, schedule: Q01DX009 (ip), vehicle: Klucel (hydroxypropylcellulose) (HPC)
structure (smiles),measurement,setting,value
CC(/C=N/N/C(N)=N\N)=N\N/C(N)=N/N,survivor count,"T/C endpoint: mean survival time, dose: 480.0 mg/kg/injection, schedule: Q01DX Z (ip), vehicle: methylcellulose (MC)",0 of 6
same,survivor count,"T/C endpoint: mean survival time, dose: 600.0 mg/kg/injection, schedule: Q01DX Z (oral), vehicle: methylcellulose (MC)",0 of 6
same,survivor count,"T/C endpoint: mean survival time, dose: 720.0 mg/kg/injection, schedule: Q01DX Z (oral), vehicle: methylcellulose (MC)",0 of 6
same,survivor count,"T/C endpoint: mean survival time, dose: 840.0 mg/kg/injection, schedule: Q01DX Z (oral), vehicle: methylcellulose (MC)",0 of 6
same,survivor count,"T/C endpoint: mean survival time, dose: 3600.0 mg/kg/injection, schedule: Q01DX Z (ip), vehicle: methylcellulose (MC)",0 of 6
Nc1nc(=S)c2[nH]c(N=Nc3ccc(S(N)(=O)=O)cc3)nc2[nH]1,T/C,"T/C endpoint: mean survival time, dose: 100.0 mg/kg/injection, schedule: Q04DX003 (ip), vehicle: Klucel (hydroxypropylcellulose) (HPC)",145 and 147 % of control
same,T/C,"T/C endpoint: mean survival time, dose: 200.0 mg/kg/injection, schedule: Q04DX003 (ip), vehicle: Klucel (hydroxypropylcellulose) (HPC)",147 % of control
same,survivor count,[1],3 of 6
COC(=O)c1ccc(=O)c2nc3/c(=C/O)c(O)cc(=O)c3[nH]c12,survivor count,"T/C endpoint: mean survival time, dose: 0.19 mg/kg/injection, schedule: Q01DX001 (ip), vehicle: saline",3 of 6
same,survivor count,"T/C endpoint: mean survival time, dose: 0.39 mg/kg/injection, schedule: Q01DX001 (ip), vehicle: saline",0 of 6
same,survivor count,"T/C endpoint: mean survival time, dose: 0.78 mg/kg/injection, schedule: Q01DX001 (ip), vehicle: saline",0 of 6
same,survivor count,"T/C endpoint: mean survival time, dose: 1.56 mg/kg/injection, schedule: Q01DX001 (ip), vehicle: saline",0 of 6
same,survivor count,"T/C endpoint: mean survival time, dose: 2.5 mg/kg/injection, schedule: Q01DX009 (ip), vehicle: saline with Tween-80",5 of 6
same,survivor count,"T/C endpoint: mean survival time, dose: 3.12 mg/kg/injection, schedule: Q01DX001 (ip), vehicle: saline",0 of 6
same,survivor count,"T/C endpoint: mean survival time, dose: 5.0 mg/kg/injection, schedule: Q01DX009 (ip), vehicle: saline with Tween-80",4 of 6
same,survivor count,"T/C endpoint: mean survival time, dose: 6.25 mg/kg/injection, schedule: Q01DX001 (ip), vehicle: saline",0 of 6
same,survivor count,"T/C endpoint: mean survival time, dose: 10.0 mg/kg/injection, schedule: Q01DX009 (ip), vehicle: saline with Tween-80",0 of 6
same,survivor count,"T/C endpoint: mean survival time, dose: 12.5 mg/kg/injection, schedule: Q01DX001 (ip), vehicle: saline",1 of 6
same,survivor count,"T/C endpoint: mean survival time, dose: 25.0 mg/kg/injection, schedule: Q01DX001 (ip), vehicle: saline",0 of 6
same,survivor count,[2],0 of 6
same,survivor count,[3],0 of 6
same,survivor count,"T/C endpoint: mean survival time, dose: 100.0 mg/kg/injection, schedule: Q04DX003 (ip), vehicle: saline with Tween-80",0 of 6
same,survivor count,[4],0 of 6
same,survivor count,[5],0 of 6
same,survivor count,[6],0 of 6
same,survivor count,[7],0 of 6
same,survivor count,"T/C endpoint: mean survival time, dose: 95.0 micrograms/kg/injection, schedule: Q01DX009 (ip), vehicle: saline",6 of 6
Brc1cscc1-c1cccc2ccccc12,survivor count,"T/C endpoint: mean survival time, dose: 50.0 mg/kg/injection, schedule: Q01DX009 (ip), vehicle: saline with Tween-80",3 of 3
CCOC(=O)C(Cl)CCl (stereo unspecified),survivor count,[1],4 of 6
CCOC(=O)NC1=NCC(C)(C)S1,survivor count,[8],2 of 6
same,survivor count,[9],0 of 6
CC1(C)N=C(N)N=C(N)N1c1cccc(CNc2ccccc2)c1,survivor count,[2],1 of 6
same,survivor count,[3],0 of 6
same,survivor count,[4],0 of 6
same,survivor count,[6],0 of 6
C[n+]1ccccc1/C=C/c1ccc(O)c2ccccc12,survivor count,[8],3 of 6
same,survivor count,[9],0 of 6
Fc1ccc(CSC(=S)Nc2ccc(Cl)c(Cl)c2)cc1,survivor count,"T/C endpoint: mean survival time, dose: 300.0 mg/kg/injection, schedule: Q04DX003 (ip), vehicle: saline with Tween-80",1 of 3
Cc1cc(O)c(O)c(C(C)(C)C)c1,survivor count,"T/C endpoint: mean survival time, dose: 400.0 mg/kg/injection, schedule: Q04DX002 (ip), vehicle: other",2 of 3
CC[C@H]1CN2CCc3cc(OC)c(OC)cc3[C@@H]2C[C@@H]1C[C@H]1NCCc2c1[nH]c1ccc(O)cc21,T/C,"T/C endpoint: mean survival time, dose: 1.0 mg/kg/injection, schedule: Q01DX006 (ip), vehicle: saline",127 % of control
same,T/C,"T/C endpoint: mean survival time, dose: 2.0 mg/kg/injection, schedule: Q01DX006 (ip), vehicle: saline",128 % of control
same,survivor count,"T/C endpoint: mean survival time, dose: 4.0 mg/kg/injection, schedule: Q01DX006 (ip), vehicle: saline",7 of 9
same,survivor count,"T/C endpoint: mean survival time, dose: 8.0 mg/kg/injection, schedule: Q01DX005 (ip), vehicle: saline",0 of 10
same,survivor count,"T/C endpoint: mean survival time, dose: 8.0 mg/kg/injection, schedule: Q01DX006 (ip), vehicle: saline",0 of 10
same,T/C,"T/C endpoint: mean survival time, dose: 8.0 mg/kg/injection, schedule: Q04DX003 (ip), vehicle: saline",136 % of control
same,survivor count,"T/C endpoint: mean survival time, dose: 16.0 mg/kg/injection, schedule: Q01DX005 (ip), vehicle: saline",0 of 10
same,survivor count,"T/C endpoint: mean survival time, dose: 16.0 mg/kg/injection, schedule: Q04DX003 (ip), vehicle: saline",0 of 10
same,survivor count,"T/C endpoint: mean survival time, dose: 32.0 mg/kg/injection, schedule: Q04DX003 (ip), vehicle: saline",0 of 10
same,T/C,"T/C endpoint: mean survival time, dose: 2000.0 micrograms/kg/injection, schedule: Q01DX009 (ip), vehicle: saline",131 % of control
same,survivor count,"T/C endpoint: mean survival time, dose: 4000.0 micrograms/kg/injection, schedule: Q01DX009 (ip), vehicle: saline",5 of 10
same,T/C,"T/C endpoint: median survival time, dose: 4.0 mg/kg/injection, schedule: Q04DX003 (ip), vehicle: saline + alcohol",126 % of control [7 of 8 alive]
same,survivor count,"T/C endpoint: median survival time, dose: 8.0 mg/kg/injection, schedule: Q04DX003 (ip), vehicle: saline + alcohol",4 of 8
same,survivor count,"T/C endpoint: median survival time, dose: 16.0 mg/kg/injection, schedule: Q04DX003 (ip), vehicle: saline + alcohol",2 of 8
COc1ccc(C(CC(=O)c2ccc3c(c2)OCO3)c2c(O)c3ccccc3oc2=O)cc1OC (stereo unspecified),survivor count,"T/C endpoint: mean survival time, dose: 400.0 mg/kg/injection, schedule: Q01DX009 (ip), vehicle: saline with Tween-80",5 of 6
CC1CC(C)(C)N=C(CCC[N+](=O)[O-])O1 (stereo unspecified),survivor count,"T/C endpoint: mean survival time, dose: 100.0 mg/kg/injection, schedule: Q04DX003 (ip), vehicle: other",6 of 6
CC1(C)N=C(N)N=C(N)N1c1cccc(OCCCOc2ccc([N+](=O)[O-])cc2)c1,survivor count,[4],3 of 6
same,survivor count,[6],0 of 6
CC(=O)SC1CC(=O)OC1=O (stereo unspecified),survivor count,"T/C endpoint: mean survival time, dose: 200.0 mg/kg/injection, schedule: Q01DX009 (ip), vehicle: saline",6 of 6
Cn1nc(N)c2cc(C(N)=O)c(N)nc21,survivor count,[10],6 of 6
c1ccc2c(c1)C1C3CCC(C3)C21 (stereo unspecified),T/C,[5],137 % of control
CCCCCCCCCCCCCCCCCC[N+](C)=C1SCCS1,survivor count,"T/C endpoint: mean survival time, dose: 12.5 mg/kg/injection, schedule: Q01DX009 (ip), vehicle: Klucel (hydroxypropylcellulose) (HPC)",3 of 6
same,survivor count,"T/C endpoint: mean survival time, dose: 25.0 mg/kg/injection, schedule: Q01DX009 (ip), vehicle: Klucel (hydroxypropylcellulose) (HPC)",0 of 6
same,survivor count,"T/C endpoint: mean survival time, dose: 50.0 mg/kg/injection, schedule: Q01DX009 (ip), vehicle: Klucel (hydroxypropylcellulose) (HPC)",0 of 6
same,survivor count,"T/C endpoint: mean survival time, dose: 100.0 mg/kg/injection, schedule: Q01DX009 (ip), vehicle: Klucel (hydroxypropylcellulose) (HPC)",0 of 6
same,survivor count,[10],0 of 6
same,survivor count,"T/C endpoint: mean survival time, dose: 400.0 mg/kg/injection, schedule: Q01DX009 (ip), vehicle: Klucel (hydroxypropylcellulose) (HPC)",0 of 6
O=C(c1ccccc1)c1ccsc1C(=O)O,survivor count,"T/C endpoint: mean survival time, dose: 100.0 mg/kg/injection, schedule: Q04DX002 (ip), vehicle: saline with Tween-80",3 of 3
ClC1=C(Cl)C2(Cl)C3C4CC(C(I)C4I)C3C1(Cl)C2(Cl)Cl (stereo unspecified),survivor count,"T/C endpoint: mean survival time, dose: 300.0 mg/kg/injection, schedule: Q01DX001 (ip), vehicle: other",1 of 6
CCN(CC)CCCC(C)Nc1ccnc(/C=C/c2ccc(C(F)(F)F)cc2)c1 (stereo unspecified),survivor count,[4],1 of 6
same,survivor count,[6],0 of 6
Cc1ccc(S(=O)(=O)NC(Cc2ccccc2)C(=O)CCl)cc1 (stereo unspecified),survivor count,[7],2 of 6
